Assay results: paper PMC12484294
Results are given in words; binding and its absence hold for the method and conditions named. In cells and extracts the contact can be indirect. Some entries that bind do so weakly or less than the wild type.

Amino acid sequences for entries named in this document (tags omitted).
UniProt A0A8I3S4R3: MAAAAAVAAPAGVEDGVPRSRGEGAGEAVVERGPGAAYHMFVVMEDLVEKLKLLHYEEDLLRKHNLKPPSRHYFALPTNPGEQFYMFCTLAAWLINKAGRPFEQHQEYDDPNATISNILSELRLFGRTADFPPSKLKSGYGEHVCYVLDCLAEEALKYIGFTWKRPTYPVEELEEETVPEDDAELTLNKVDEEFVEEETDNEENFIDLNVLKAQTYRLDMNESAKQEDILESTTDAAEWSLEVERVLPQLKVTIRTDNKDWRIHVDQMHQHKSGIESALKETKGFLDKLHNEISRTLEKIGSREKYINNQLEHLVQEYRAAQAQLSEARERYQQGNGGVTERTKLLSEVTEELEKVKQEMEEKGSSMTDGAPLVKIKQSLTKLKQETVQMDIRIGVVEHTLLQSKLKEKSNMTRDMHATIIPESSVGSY

Target: T1, ZO-2 (Zonula occludens-2) (dog (endogenous in MDCK)) (UniProt Q95168)
T1 sequence: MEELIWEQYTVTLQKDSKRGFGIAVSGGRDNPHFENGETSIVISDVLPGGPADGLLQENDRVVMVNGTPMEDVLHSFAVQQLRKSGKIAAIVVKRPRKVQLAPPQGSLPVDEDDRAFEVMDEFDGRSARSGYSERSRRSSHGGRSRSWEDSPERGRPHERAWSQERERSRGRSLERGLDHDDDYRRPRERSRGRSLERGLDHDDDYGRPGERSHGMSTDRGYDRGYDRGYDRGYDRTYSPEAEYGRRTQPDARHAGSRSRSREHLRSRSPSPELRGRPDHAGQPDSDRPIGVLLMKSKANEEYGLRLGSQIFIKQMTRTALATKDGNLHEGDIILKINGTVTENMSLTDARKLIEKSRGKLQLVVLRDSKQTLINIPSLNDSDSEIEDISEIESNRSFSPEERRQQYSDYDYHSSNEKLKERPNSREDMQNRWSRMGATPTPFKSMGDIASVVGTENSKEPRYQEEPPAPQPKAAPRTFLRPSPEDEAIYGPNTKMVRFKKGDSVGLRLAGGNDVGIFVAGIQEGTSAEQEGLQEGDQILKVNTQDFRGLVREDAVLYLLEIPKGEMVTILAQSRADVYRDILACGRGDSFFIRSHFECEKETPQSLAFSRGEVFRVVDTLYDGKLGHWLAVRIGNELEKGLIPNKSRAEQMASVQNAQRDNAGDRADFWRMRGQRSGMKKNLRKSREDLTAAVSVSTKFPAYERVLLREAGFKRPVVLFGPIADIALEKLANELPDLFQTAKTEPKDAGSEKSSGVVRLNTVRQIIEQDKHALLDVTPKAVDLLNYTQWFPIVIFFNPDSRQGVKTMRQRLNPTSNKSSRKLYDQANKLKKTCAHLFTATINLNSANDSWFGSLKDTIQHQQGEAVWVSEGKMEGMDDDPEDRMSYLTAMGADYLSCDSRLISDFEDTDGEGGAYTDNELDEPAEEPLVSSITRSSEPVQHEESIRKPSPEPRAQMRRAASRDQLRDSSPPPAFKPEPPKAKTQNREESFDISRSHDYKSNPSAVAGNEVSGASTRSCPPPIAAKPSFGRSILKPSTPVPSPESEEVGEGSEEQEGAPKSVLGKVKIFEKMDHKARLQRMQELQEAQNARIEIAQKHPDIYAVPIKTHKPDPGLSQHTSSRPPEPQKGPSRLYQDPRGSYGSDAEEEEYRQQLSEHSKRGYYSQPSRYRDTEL
Test: co-IP; ZO-2 immunoprecipitated with anti-ZO-2 (1 ul per 300 ug protein) from lysate of parental MDCK cells; buffer 50 mM Tris-HCl pH 7.5, 150 mM NaCl, 1% NP-40, protease inhibitors; Western blot of the precipitate; subconfluent or proliferating cells (KIF14, NuMA, p-Aurora, TPX2) or confluent cells (IFT57); pre-immune serum as control

In the case of “IFT-B protein IFT57 (from UniProt A0A8I3S4R3 1-429)”, the binding is reported as “binds”.
